The whole screen tested about 350,000 compounds, of which about 6,000 (1.7%) were called active. This list was built around the results that the source calls inconclusive (neither active nor inactive); the mix of calls is not that of the screen. No stated cut-off is given here; in the data, active means CPE inhibition above about 20% (passing the limit was not always enough); inconclusive means no clear call, values can overlap the other calls; tested in BHK-21 cells.
Experiment: protection of cells from dengue 2 killing – plate reader, single concentration, primary screen (AID 651640);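 further: 0% = median of neutral control wells and 100% = median of positive control wells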
Details: DENV2-infected cells, cytopathic effect rescue, at 9.99 µM, active compounds read high

| Structure (SMILES) | CPE inhibition |
| --- | --- |
| Cc1cccc(-c2ccc([C@H]3[C@H]4CN(C(=O)c5ccncc5)CCCCN4[C@H]3CO)cc2)c1 | active: 21.9% |
| CCN(CC(=O)Nc1c(F)cccc1F)C(=O)C1=COCCO1 | inconclusive: 21.3% |
| CO[C@@H]1CN(C)C(=O)c2cc(NC(C)=O)ccc2OC[C@H](C)N(Cc2nccs2)C[C@@H]1C | active: 58.7% |
| Cc1cc(Br)ccc1N=C1C(=O)Nc2ccccc21 | inconclusive: 27.4% |
| CCc1nc2ccc(C(=O)N3CCN(c4ccccc4)CC3)cc2nc1CC | inconclusive: 21% |
| CCCc1c(C(=O)N/N=C(\C)c2ccccc2O)nnn1-c1nonc1N | inconclusive: 31.4% |
| CCCNC(=O)N1CC2(CCN(C)CC2)c2c([nH]c3cc(OC)ccc23)[C@@H]1CO | inactive: 0.733% |
| CCOC(=O)N1CCN(C(=O)CS(=O)(=O)c2cn(Cc3ccc(Cl)cc3)c3ccccc23)CC1 | inconclusive: 38.4% |
| C=CCN1C(=O)N/C(=C/c2ccccc2OCC(=O)Nc2ccc(F)cc2)C1=O | active: 22.2% |
| O=C(Nc1ccccc1)N1C[C@H]2[C@@H](c3ccccc31)[C@H](CO)N2Cc1ccc(F)cc1 | inconclusive: 65.7% |
| COc1ccc(NC(=O)Nc2ccc3c(c2)C(=O)N([C@H](C)CO)C[C@@H](C)[C@@H](CN(C)S(=O)(=O)c2ccccc2)OCCCC[C@H](C)O3)cc1 | inactive: -0.775% |
| C[C@@H]1CCCCO[C@@H](CN(C)S(=O)(=O)c2ccc(F)cc2)[C@H](C)CN([C@H](C)CO)C(=O)c2cc(NC(=O)Nc3ccc4c(c3)OCO4)ccc2O1 | active: 23.8% |
| CN(C)CC(=O)Nc1ccc2c(c1)[C@@H]1C[C@@H](CC(=O)N3CCc4ccccc4C3)O[C@@H](CO)[C@@H]1O2 | inconclusive: 28.8% |
| CCCNC(=O)N(C)C[C@@H]1Oc2cc(C#CC3CC3)ccc2S(=O)(=O)N([C@@H](C)CO)C[C@@H]1C | inactive: -1.54% |
| COCCCNC(=O)C[C@H]1C[C@H](C(=O)N2CCOCC2)[C@@]2(C)c3[nH]c4cc(CCC(=O)N(C)C)ccc4c3CCN2C1=O | inconclusive: 35.9% |
| CC(C)NC(=O)Nc1ccc2c(c1)C(=O)N([C@H](C)CO)C[C@H](C)[C@H](CN(C)C(=O)Cc1ccccc1)OCCCC[C@H](C)O2 | inactive: -2.06% |
| O=C(NC(=S)Nc1cccc2cc(O)ccc12)c1ccccc1Br | inconclusive: 24.1% |
| CCOC(=O)c1cc([N+](=O)[O-])sc1NC(=O)CC | inconclusive: 34.8% |
| COc1ccc(NC(=O)N(C)C[C@@H]2Oc3c(NC(=O)Nc4ccc(F)cc4)cccc3C(=O)N([C@@H](C)CO)C[C@H]2C)cc1 | active: 34.4% |
| CCn1c(C)nc2c(C)[n+](CC(=O)c3ccc(Br)cc3)ccc21 | inconclusive: 21.9% |
| C[C@@H]1CN([C@H](C)CO)C(=O)c2cccc(NS(=O)(=O)c3ccc(F)cc3)c2O[C@@H]1CN(C)C(=O)Nc1ccc2c(c1)OCO2 | active: 24.1% |
| COc1ccc(CC(=O)NNC(=O)COc2ccc(C)cc2)cc1S(=O)(=O)N1CCOCC1 | active: 40.3% |
| CCNC(=O)[C@H]1[C@H](CO)[C@H]2Cn3c(ccc(-c4cccc(F)c4)c3=O)[C@@H]1N2C(=O)c1cnccn1 | inactive: -0.726% |

Rewritten as tab-separated lines: 4 of the compounds above.
Structure (SMILES)	CPE inhibition
CCn1c(C)nc2c(C)[n+](CC(=O)c3ccc(Br)cc3)ccc21	inconclusive: 21.9%
C[C@@H]1CN([C@H](C)CO)C(=O)c2cccc(NS(=O)(=O)c3ccc(F)cc3)c2O[C@@H]1CN(C)C(=O)Nc1ccc2c(c1)OCO2	active: 24.1%
COc1ccc(CC(=O)NNC(=O)COc2ccc(C)cc2)cc1S(=O)(=O)N1CCOCC1	active: 40.3%
CCNC(=O)[C@H]1[C@H](CO)[C@H]2Cn3c(ccc(-c4cccc(F)c4)c3=O)[C@@H]1N2C(=O)c1cnccn1	inactive: -0.726%

Remaining list, next part.

| Structure (SMILES) | CPE inhibition |
| --- | --- |
| N#CCC(=O)Nc1nc(-c2ccc3c(c2)OCCO3)cs1 | inconclusive: 20.8% |
| C[C@@H]1CCCCO[C@@H](CN(C)C)[C@H](C)CN([C@H](C)CO)C(=O)c2cc(NC(=O)NC3CCCCC3)ccc2O1 | inconclusive: 36.5% |
| Fc1cccc(-c2c(-c3ccccc3)ncc3cc(F)ccc23)c1 | inactive: 16.3% |
| O=C(NCCCN1CCCC1=O)c1cc(S(=O)(=O)N2CCOCC2)c(Cl)cc1Cl | inactive: 11.2% |
| O=C(COC(=O)c1cccnc1Cl)NCCc1ccccc1 | inconclusive: 45% |
| Cc1ccc(-n2c(CC#N)n[nH]c2=S)c(C)c1 | inconclusive: 20.9% |
| COc1ccc(C(=O)Nc2ccc3nc(C)sc3c2)cc1S(=O)(=O)N1CCOCC1 | inconclusive: 53.9% |
| CC1CN(C(=O)C(C)OC(=O)c2ccc3ncsc3c2)CC(C)O1 (stereo unspecified) | inconclusive: 29.8% |
| O=C(CCNC(=O)c1ccc(Br)cc1)NCC(c1ccco1)N1CCCCC1 (stereo unspecified) | active: 81.5% |
| CCOc1ccc(NC(=O)CCC(=O)NNC(=O)COc2ccc(C)cc2Br)cc1 | inconclusive: 21.2% |
| CCNC(=O)C[C@H]1CC[C@@H]2[C@@H](COc3ccc(NC(=O)Nc4ccccc4Cl)cc3C(=O)N2C)O1 | inconclusive: 65.5% |
| O=C(C[C@@H]1CC[C@H]2[C@@H](COC[C@H](O)CN2CCC(F)(F)F)O1)N1CCC(Cc2ccccc2)CC1 | inactive: 7.37% |
| COc1ccc(S(=O)(=O)N[C@H]2C=C[C@H](CC(=O)O)O[C@@H]2CO)cc1 | inconclusive: 36.1% |
| CC[N+](C)(CC)CCOC(=O)C(O)(c1ccccc1)C1CCCCC1 (stereo unspecified) | inconclusive: 55.6% |
| CNC[C@H]1Oc2ccc(NS(=O)(=O)c3ccc(F)cc3)cc2CC(=O)N([C@@H](C)CO)C[C@@H]1C | inconclusive: 20.7% |
| NNC(=O)c1ccc(Oc2cc(Cl)cc(Cl)c2)o1 | inconclusive: 42.7% |
| CCN1C[C@@H]2[C@@H]3C(=O)N(Cc4ccccc4)C(=O)[C@@H]3[C@](Cc3ccccc3)(C1=O)N2C(=O)c1ccc(Br)cc1 | active: 67.6% |
| COCC(C)NC(=O)c1cc2cccc([N+](=O)[O-])c2[nH]1 (stereo unspecified) | inconclusive: 36.2% |
| COc1ccc(NC(=O)CCC(=O)c2ccc(F)cc2)cc1 | inconclusive: 20.3% |
| CCC(=O)Nc1ccc2c(c1)C(=O)N(C)C[C@@H](OC)[C@H](C)CN(C(=O)c1ccccn1)[C@H](C)CO2 | active: 42.6% |
| CCSc1nnc([C@@H](NC(=O)OC(C)(C)C)C(C)C)o1 | inconclusive: 23.6% |
| Cc1ccccc1CC1(C)C(=O)Nc2ccc(S(=O)(=O)NC3CCCCC3)cc21 (stereo unspecified) | inconclusive: 65.9% |
| CCN(CC)Cc1c(C(=O)N/N=C/c2cccc(OCc3cccc(Cl)c3)c2)nnn1-c1nonc1N | inconclusive: 22.4% |

From PubChem BioAssay AID651640 (Broad Institute, 2012)
